In PMC8080847:
Results are given in words; binding and its absence hold for the method and conditions named. Some entries that bind do so weakly or less than the wild type.

By UniProt entry, the sequences of proteins in these tests, tags left out. Residues count along the entry.
UniProt P16070, residues 21-742: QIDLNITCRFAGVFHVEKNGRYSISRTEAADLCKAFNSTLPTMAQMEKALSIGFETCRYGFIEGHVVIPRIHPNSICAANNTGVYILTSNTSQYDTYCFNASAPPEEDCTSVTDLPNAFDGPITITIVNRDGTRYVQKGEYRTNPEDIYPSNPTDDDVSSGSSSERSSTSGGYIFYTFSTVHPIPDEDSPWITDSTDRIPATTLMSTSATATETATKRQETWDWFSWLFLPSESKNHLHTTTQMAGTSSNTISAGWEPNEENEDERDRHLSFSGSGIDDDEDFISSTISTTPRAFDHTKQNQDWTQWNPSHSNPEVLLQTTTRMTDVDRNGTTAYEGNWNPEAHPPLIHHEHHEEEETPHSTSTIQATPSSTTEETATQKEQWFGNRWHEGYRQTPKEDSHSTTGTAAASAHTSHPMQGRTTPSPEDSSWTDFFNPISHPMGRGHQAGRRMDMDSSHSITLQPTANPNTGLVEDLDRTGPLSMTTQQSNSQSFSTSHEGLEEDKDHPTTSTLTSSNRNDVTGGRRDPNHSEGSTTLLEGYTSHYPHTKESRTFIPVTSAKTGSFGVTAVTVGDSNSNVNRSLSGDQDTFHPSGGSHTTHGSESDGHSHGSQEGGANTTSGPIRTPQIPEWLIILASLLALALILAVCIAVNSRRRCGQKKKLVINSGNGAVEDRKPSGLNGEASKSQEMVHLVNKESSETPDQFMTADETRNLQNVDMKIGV

Columns and labels:
[1] = molecular target: EGFR on human cancer cell lines (human (endogenous in A431, A549, NCI-H508, Caco-2, Skbr3, Skov3)) (UniProt P00533); test: single-molecule diffusional mobility shift assay (smDIMSA); living Skbr3 cells; EGFR as bait, each receptor as prey with an antibody targeting the prey
[2] = molecular target: EGFR on human cancer cell lines (human (endogenous in A431, A549, NCI-H508, Caco-2, Skbr3, Skov3)) (UniProt P00533); test: single-molecule diffusional mobility shift assay (smDIMSA); living Skov3 cells; EGFR as bait, each receptor as prey with an antibody targeting the prey

binding [1]: binds
binding [2]: binds
Substance: CD44 on human cancer cell lines (from UniProt P16070 21-742) (receptor)
